This passage reports binding results from doi:10.1101/2025.10.10.681325.

These are yes or no findings as the source states them, for the method shown. Some results given as binding are weak or reduced against the parent protein; the word gives no strength.

This test has as its target VapB12 antitoxin (Rv1721c), recombinant, as crystallised (M. tuberculosis) (UniProt P9WJ53). The test is described as follows: crystal structure.

Take “VapB12 antitoxin (Rv1721c), recombinant, as crystallised (from UniProt P9WJ53 1-75)”: the binding entry is given as “binds”.
